{"source": "PubChem BioAssay AID1259254 | NCATS – 2017", "purpose": "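Gene knock-downs that lead to re-replication, shown by excess G2 DNA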 (primary screen)", "cell system": "human HCT116 colorectal cancer cells", "knock-down reagent": "single siRNA against human genes", "timing": "3 days", "measurement": "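Imaged Hoechst DNA stain sorts each cell into a cycle phase by DNA amount; per plate, G2 fraction set to 0% for non-targeting and 100% for GMNN siRNA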", "scale": "G2 robust z-score and G2 cells, % of GMNN control: higher = more G2 cells, more excess DNA replication", "hit rule": "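Active siRNAs have a G2 robust z of 5 or more median absolute deviations over the median, which in these data means about 38% or higher of GMNN control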", "note": "Here is a random part of about 59,000 reagents tested. Of all reagents, about 1,550 (2.6%) are marked active. 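G2 share is only a proxy for re-replication; each gene was hit by three separate siRNAs, and active genes were retested.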 A number with no mark means an inactive call. Further read-outs or replicates are left out here. Not stated in the record: the amount of reagent."}
{"gene": "INSIG2", "PubChem SID": "SID160733489", "G2 robust z-score": -0.244, "G2 cells, % of GMNN control": 1.25}
{"gene": "INSIG2", "PubChem SID": "SID160740165", "G2 robust z-score": -0.181, "G2 cells, % of GMNN control": 1.69}
{"gene": "INSIG2", "PubChem SID": "SID160740166", "G2 robust z-score": -0.494, "G2 cells, % of GMNN control": -0.505}
{"gene": "LSG1", "PubChem SID": "SID160743586", "G2 robust z-score": -0.992, "G2 cells, % of GMNN control": -4.01}
{"gene": "LSG1", "PubChem SID": "SID160743587", "G2 robust z-score": 0.661, "G2 cells, % of GMNN control": 7.62}
{"gene": "LSG1", "PubChem SID": "SID160743588", "G2 robust z-score": -0.908, "G2 cells, % of GMNN control": -3.42}
{"gene": "PIWIL4", "PubChem SID": "SID160758064", "G2 robust z-score": 0.141, "G2 cells, % of GMNN control": 3.96}
{"gene": "PIWIL4", "PubChem SID": "SID160758065", "G2 robust z-score": 1.2, "G2 cells, % of GMNN control": 11.4}
{"gene": "PIWIL4", "PubChem SID": "SID160758066", "G2 robust z-score": 1.58, "G2 cells, % of GMNN control": 14.1}
{"gene": "TRIM51G", "PubChem SID": "SID160755839", "G2 robust z-score": 0.309, "G2 cells, % of GMNN control": 5.14}
{"gene": "TRIM51G", "PubChem SID": "SID160755840", "G2 robust z-score": 2.09, "G2 cells, % of GMNN control": 17.7}
{"gene": "TRIM51G", "PubChem SID": "SID160755841", "G2 robust z-score": 0.341, "G2 cells, % of GMNN control": 5.37}
{"gene": "EVX2", "PubChem SID": "SID160731114", "G2 robust z-score": 0.235, "G2 cells, % of GMNN control": 4.62}
{"gene": "EVX2", "PubChem SID": "SID160764761", "G2 robust z-score": 3.71, "G2 cells, % of GMNN control": 29.1}
{"gene": "EVX2", "PubChem SID": "SID160764762", "G2 robust z-score": -0.909, "G2 cells, % of GMNN control": -3.43}
{"gene": "RNF149", "PubChem SID": "SID160763467", "G2 robust z-score": -1.21, "G2 cells, % of GMNN control": -5.56}
{"gene": "RNF149", "PubChem SID": "SID160763468", "G2 robust z-score": 0.274, "G2 cells, % of GMNN control": 4.89}
{"gene": "RNF149", "PubChem SID": "SID160763470", "G2 robust z-score": 0.4, "G2 cells, % of GMNN control": 5.78}
{"gene": "CCL22", "PubChem SID": "SID160716482", "G2 robust z-score": 0.83, "G2 cells, % of GMNN control": 8.81}
{"gene": "CCL22", "PubChem SID": "SID160716483", "G2 robust z-score": -0.63, "G2 cells, % of GMNN control": -1.47}
{"gene": "CCL22", "PubChem SID": "SID160716485", "G2 robust z-score": 0.989, "G2 cells, % of GMNN control": 9.93}
{"gene": "CPXM2", "PubChem SID": "SID160755725", "G2 robust z-score": 1.23, "G2 cells, % of GMNN control": 11.6}
{"gene": "CPXM2", "PubChem SID": "SID160755728", "G2 robust z-score": -0.461, "G2 cells, % of GMNN control": -0.274}
{"gene": "CPXM2", "PubChem SID": "SID160755729", "G2 robust z-score": 1.05, "G2 cells, % of GMNN control": 10.4}

A few values from the list.
For “G2 cells, % of GMNN control”, INSIG2 [SID160740165] reads 1.69
Under “G2 cells, % of GMNN control”, CCL22 [SID160716482] shows 8.81
Value for CPXM2 [SID160755728] under “G2 cells, % of GMNN control”: -0.274
